# Experimental data reported in the supplement of paper PMC3334620.
# Whole data set: some 33,000 sequences, median “E-score (-0.5 to 0.5)” near -0.0034, cut for the highest 2% near 0.25. The list shows a part of the results.
# Target: T1, Yap3 (UniProt P38749)
# T1 sequence: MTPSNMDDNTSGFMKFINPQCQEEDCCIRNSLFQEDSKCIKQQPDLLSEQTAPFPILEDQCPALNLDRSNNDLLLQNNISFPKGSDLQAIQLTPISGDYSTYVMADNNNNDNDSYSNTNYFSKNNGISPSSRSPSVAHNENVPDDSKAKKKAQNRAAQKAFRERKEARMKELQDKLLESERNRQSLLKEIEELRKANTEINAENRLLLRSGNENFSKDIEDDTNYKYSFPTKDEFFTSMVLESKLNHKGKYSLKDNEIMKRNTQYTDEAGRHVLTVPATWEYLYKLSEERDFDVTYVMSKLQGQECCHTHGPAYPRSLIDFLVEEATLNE
# Test: PBM E-score (8-mer binding enrichment) (E-score (-0.5 to 0.5)); higher = stronger / more preferred TF binding
# Details: protein concentration: 100 nM; construct: GST-full length
# Description: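 Universal 'all 10-mer' protein binding microarrays (Agilent AMADID 015681) probed with GST-tagged S. cerevisiae TFs (full-length or DBD) made by in vitro transcription/translation (PURExpress), about 100-200 nM. Bound TF was detected with fluorescent anti-GST. Each ungapped 8-mer (which stands for itself and its reverse complement) is scored by the PBM enrichment score (E-score), a modified Wilcoxon-Mann-Whitney statistic from -0.5 to +0.5, computed with the Universal PBM Analysis Suite. Scale: above 0.35 generally sequence-specific binding.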
row,Sequence,PBM E-score
1,CCCGAGCC,-0.12
2,GGAGCGCC,-0.292
3,CCTCCGAC,-0.295
4,CCACTACC,-0.0927
5,CTATTATA,0.145
6,ATGTTAGA,-0.0124
7,CACTAGGA,-0.21
8,TATTGGCA,0.17
9,AAGCACTA,0.0641
10,TCGCCCCA,-0.0688
11,AACTACGA,0.0343
12,GCTCCTTA,0.0472
13,AGCTGCAG,0.0196
14,CCTAAAGG,-0.296
15,GTTTTAGA,0.0499
16,CCAGGATC,-0.0532
17,ATCACTCG,0.0758
18,AGACTGCA,-0.173
19,AGCAGGTC,-0.113
20,AACAGGAA,0.192
21,CCAGTCCA,-0.301
22,CCCAAATC,-0.181
23,CATCTGTC,-0.0896
24,CCGATTAA,0.0516
25,GCCGTCCC,-0.221

row,Sequence,PBM E-score
1,GCGCCAAA,0.0199
2,GTCGCACA,-0.0581
3,GCCTCCGC,-0.251
4,CCTCGGAC,-0.0674
5,ACTCGACG,0.0995
6,ACATCGTC,0.0182
7,CATTGTCC,0.152
8,CGTAACCC,-0.0525
9,AATACTTC,0.0594
10,CGATGAAA,0.151
11,CAAATCAC,0.0668
12,AGATGCCT,-0.16
13,AGTAAACG,0.0328
14,CATATGGG,0.074
15,AATTTCGA,-0.00117
16,ATAGGAGC,-0.0665
17,GAAGAGAA,0.0793
18,AAGACGGA,-0.0853
19,CTCGACCC,-0.173
20,TATCTGAA,0.00285
21,ATAGGCTA,-0.0511
22,CCTAATTC,0.036
23,TGCAGGAA,0.123
24,AAAAACCG,0.0201
25,GTAGATTA,0.245

# Single values from the entries so far:
# PBM E-score with CCTCGGAC reads -0.0674
# PBM E-score with CCCAAATC reads -0.181
# PBM E-score with AAGACGGA reads -0.0853
# PBM E-score with AGATGCCT reads -0.16
# PBM E-score with AATACTTC reads 0.0594

# (listing goes on)

row,Sequence,PBM E-score
1,CTAGACAC,-0.116
2,CAACTTTC,0.132
3,GAGAGGTA,-0.0637
4,ACCTCTAC,0.121
5,GGACCCCA,-0.129
6,CGGTGCAG,-0.157
7,CTCTTTGC,0.00066
8,AACAGTTC,0.0834
9,GTTAACAA,0.205
10,TGCGCCAA,-0.024
11,CGGGGTCA,-0.139
12,CCTGGGAC,-0.282
13,ACTGGGTC,-0.257
14,TGGCGCCA,-0.116
15,ATGGTATA,0.262
16,GGAAAGAA,0.0609
17,AACAAGTA,0.0882
18,CCCTCCCA,-0.00238
19,AACCTCTG,-0.137
20,CGTCTCAA,-0.0422
21,AAAGAAAA,0.18
22,ATTCTAAC,0.109
23,GTAATAGA,0.223
24,GCTTACGA,0.219
25,CAATAGCA,-0.128

row,Sequence,PBM E-score
1,ACTACGCC,-0.303
2,ATAACATC,0.165
3,AGTATACG,0.142
4,AATTTACA,0.155
5,CCCCTTAC,-0.0967
6,GCTATACA,0.033
7,ACCATAGT,0.065
8,GTGTCTTA,-0.0355
9,ATGGGAAA,0.0297
10,CAAAAGTC,0.0469
11,ATAGCTCC,-0.0147
12,CACTCCAA,-0.141
13,CGCCATCC,-0.247
14,GTAAACAA,0.248
15,CTTCCGGA,-0.154
16,GTTCAATA,0.0871
17,CTTTCTTA,0.104
18,AAGATCCA,-0.135
19,TATCCCCA,0.127
20,GAATAGTC,0.0146
21,GACTCGGC,-0.274
22,AGTACGCG,0.0906
23,GCGTAATA,0.305
24,CATGAGGA,0.135
25,CCCCACGA,-0.103

row,Sequence,PBM E-score
1,GACATTAA,0.136
2,TCCACGAA,0.108
3,ACAATGAT,0.2
4,GTGAGGAA,-0.176
5,CGTGAAAC,0.0367
6,ACGCAAAT,-0.00525
7,TACAGCTA,-0.115
8,CGACTTGC,-0.0489
9,AAACGAGT,0.217
10,AGTTTCAA,0.0153
11,CTCAATGC,-0.105
12,ATGTTGAA,0.227
13,AACGATGC,-0.0793
14,CCGTGCCC,-0.265
15,AGCTCCTC,-0.229
16,ATGATTAC,0.13
17,AATAACCA,0.0989
18,AATACAAC,0.147
19,GAGGAATC,-0.116
20,CTTACCAC,-0.0571
21,TAGATATA,0.232
22,ACATTCAG,-0.113
23,AAATAAAA,0.224
24,AGCCAGTA,0.00092
25,AGACAGCG,-0.154

row,Sequence,PBM E-score
1,GTCGGTAA,-0.0626
2,GTTGCGAA,0.0488
3,TCGGGCAA,0.0211
4,GGGTTTAA,0.0196
5,AGTCGGCC,0.0134
6,ATATAAAC,0.247
7,CGCACGGC,-0.0879
8,CAGGACCG,-0.0673
9,AAATGATC,-0.129
10,CGGGCTCC,-0.276
11,CTACAGGA,0.11
12,AGGAAACT,0.0102
13,ATTCCATC,-0.00318
14,ACCCTATA,-0.084
15,CTTATCAC,-0.0604
16,GGATGCGA,-0.203
17,GGCCTTAC,-0.144
18,AAAGATAA,0.245
19,CGGGCGGA,-0.142
20,CGGGACTA,-0.184
21,AAAATATG,0.256
22,GAAACGAA,0.255
23,CTCACGTC,0.055
24,CGAAGGGC,-0.221
25,CCACATGA,0.0785

# Part of the list above, bar-delimited.
row | Sequence | PBM E-score
7 | ACCATAGT | 0.065
8 | GTGTCTTA | -0.0355

# Following part.

row,Sequence,PBM E-score
1,GAAGTGAC,-0.073
2,CCCAATTA,0.164
3,ACAGGATC,-0.172
4,GCCAATTA,0.193
5,ACGTTTAG,-0.0721
6,ATGCTTCG,-0.049
7,CGTGTGTC,-0.0533
8,ATAGTCAG,0.0953
9,CAAACGCG,0.15
10,GGGCTTCA,-0.258
11,ATGCAAAG,0.0802
12,AATTAACG,0.0243
13,GCGTTAGA,0.0241
14,ATTACCTC,0.0186
15,AACGCGAC,-0.0182
16,TCACGAGA,-0.0954
17,CACTCCTG,-0.0967
18,ACTGAAGC,-0.127
19,ACAATAAT,0.206
20,CGACCTCG,-0.00605
21,AGCCGCAA,-0.151
22,CCGCTTTC,-0.15
